The list shows a part of the results.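 Rule for the calls: active = dose-dependent thermal stabilisation significant by F-test of dose-response against flat model at 10% FDR; inactive = not significant.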

The chains behind the UniProt entries cited, without tags or fusion partners. Where a name states a change or a piece, a line headed by the entry shows the natural chain unless it says otherwise.
UniProt Q96GX9: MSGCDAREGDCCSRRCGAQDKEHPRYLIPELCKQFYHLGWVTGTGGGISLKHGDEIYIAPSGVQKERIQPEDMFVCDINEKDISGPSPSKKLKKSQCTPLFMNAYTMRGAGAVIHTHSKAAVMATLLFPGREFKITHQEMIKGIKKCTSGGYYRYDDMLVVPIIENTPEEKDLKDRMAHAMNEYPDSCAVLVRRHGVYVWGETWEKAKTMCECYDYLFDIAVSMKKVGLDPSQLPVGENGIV
UniProt A1A4S6: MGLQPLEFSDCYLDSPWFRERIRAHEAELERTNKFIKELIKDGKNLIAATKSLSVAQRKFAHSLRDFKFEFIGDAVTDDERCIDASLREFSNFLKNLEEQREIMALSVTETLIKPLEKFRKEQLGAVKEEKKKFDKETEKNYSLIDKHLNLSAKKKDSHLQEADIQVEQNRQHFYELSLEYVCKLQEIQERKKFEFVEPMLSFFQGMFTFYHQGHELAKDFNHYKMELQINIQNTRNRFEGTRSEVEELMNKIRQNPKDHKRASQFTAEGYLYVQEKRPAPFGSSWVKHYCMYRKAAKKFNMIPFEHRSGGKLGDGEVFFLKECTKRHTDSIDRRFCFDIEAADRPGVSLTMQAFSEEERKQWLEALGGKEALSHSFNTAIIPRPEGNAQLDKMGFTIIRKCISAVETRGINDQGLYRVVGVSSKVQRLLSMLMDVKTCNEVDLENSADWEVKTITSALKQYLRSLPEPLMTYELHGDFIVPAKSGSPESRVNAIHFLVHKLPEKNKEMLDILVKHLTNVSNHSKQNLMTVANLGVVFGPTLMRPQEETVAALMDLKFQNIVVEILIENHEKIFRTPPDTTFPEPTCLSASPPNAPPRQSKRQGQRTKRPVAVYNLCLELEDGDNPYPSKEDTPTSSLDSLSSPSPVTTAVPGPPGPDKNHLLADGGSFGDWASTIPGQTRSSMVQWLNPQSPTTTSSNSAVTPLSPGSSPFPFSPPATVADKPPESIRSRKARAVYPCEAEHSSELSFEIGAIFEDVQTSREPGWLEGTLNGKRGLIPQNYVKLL
UniProt Q92667: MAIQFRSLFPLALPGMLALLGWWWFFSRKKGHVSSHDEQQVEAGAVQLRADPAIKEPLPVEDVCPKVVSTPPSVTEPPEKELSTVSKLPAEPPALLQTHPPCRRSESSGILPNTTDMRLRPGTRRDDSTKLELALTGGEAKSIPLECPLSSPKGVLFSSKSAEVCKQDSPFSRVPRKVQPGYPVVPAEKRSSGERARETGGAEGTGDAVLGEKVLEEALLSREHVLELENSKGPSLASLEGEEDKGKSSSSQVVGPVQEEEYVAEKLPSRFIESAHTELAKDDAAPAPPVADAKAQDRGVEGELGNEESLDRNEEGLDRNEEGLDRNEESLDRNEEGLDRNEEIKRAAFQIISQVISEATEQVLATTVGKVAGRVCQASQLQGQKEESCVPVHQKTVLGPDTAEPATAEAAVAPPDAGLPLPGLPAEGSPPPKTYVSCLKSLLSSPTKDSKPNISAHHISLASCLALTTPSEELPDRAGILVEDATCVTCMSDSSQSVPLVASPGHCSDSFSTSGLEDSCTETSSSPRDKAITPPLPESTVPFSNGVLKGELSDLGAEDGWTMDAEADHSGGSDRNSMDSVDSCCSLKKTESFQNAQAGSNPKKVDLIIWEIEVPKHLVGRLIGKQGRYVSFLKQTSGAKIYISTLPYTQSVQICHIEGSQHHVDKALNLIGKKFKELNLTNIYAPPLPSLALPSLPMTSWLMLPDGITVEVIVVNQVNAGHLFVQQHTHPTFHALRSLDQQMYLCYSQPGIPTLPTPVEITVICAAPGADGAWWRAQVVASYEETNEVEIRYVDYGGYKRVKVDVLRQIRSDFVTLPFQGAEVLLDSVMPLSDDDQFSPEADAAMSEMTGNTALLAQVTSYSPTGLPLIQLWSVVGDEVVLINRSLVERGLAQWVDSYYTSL
UniProt O00170: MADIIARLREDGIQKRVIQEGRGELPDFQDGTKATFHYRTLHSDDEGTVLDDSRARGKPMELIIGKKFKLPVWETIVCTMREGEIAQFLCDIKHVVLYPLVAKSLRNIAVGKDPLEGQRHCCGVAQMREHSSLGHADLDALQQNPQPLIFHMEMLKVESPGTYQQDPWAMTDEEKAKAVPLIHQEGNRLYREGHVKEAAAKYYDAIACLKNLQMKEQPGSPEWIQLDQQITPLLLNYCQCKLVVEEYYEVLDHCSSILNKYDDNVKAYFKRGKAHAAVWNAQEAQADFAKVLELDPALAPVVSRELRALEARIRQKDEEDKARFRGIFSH
UniProt Q9H7C9: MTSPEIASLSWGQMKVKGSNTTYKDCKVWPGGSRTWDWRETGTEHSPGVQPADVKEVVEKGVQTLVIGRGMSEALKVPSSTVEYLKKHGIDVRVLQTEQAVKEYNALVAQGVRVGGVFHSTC
UniProt O43865, whole entry: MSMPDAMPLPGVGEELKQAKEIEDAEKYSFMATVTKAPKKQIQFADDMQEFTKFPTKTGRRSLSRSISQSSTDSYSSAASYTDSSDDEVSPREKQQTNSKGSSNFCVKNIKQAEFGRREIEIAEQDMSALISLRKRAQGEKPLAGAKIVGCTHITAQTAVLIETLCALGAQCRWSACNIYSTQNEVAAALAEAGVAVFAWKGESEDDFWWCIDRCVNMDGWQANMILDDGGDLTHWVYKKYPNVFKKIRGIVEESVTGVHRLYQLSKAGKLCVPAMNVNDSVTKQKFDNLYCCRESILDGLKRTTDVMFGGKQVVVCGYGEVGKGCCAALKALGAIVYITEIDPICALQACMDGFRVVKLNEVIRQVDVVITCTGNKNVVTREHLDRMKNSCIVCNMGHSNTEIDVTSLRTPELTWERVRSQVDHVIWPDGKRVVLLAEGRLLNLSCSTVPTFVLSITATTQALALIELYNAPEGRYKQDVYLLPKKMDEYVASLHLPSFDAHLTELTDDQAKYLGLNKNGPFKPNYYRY
UniProt Q8IZP0: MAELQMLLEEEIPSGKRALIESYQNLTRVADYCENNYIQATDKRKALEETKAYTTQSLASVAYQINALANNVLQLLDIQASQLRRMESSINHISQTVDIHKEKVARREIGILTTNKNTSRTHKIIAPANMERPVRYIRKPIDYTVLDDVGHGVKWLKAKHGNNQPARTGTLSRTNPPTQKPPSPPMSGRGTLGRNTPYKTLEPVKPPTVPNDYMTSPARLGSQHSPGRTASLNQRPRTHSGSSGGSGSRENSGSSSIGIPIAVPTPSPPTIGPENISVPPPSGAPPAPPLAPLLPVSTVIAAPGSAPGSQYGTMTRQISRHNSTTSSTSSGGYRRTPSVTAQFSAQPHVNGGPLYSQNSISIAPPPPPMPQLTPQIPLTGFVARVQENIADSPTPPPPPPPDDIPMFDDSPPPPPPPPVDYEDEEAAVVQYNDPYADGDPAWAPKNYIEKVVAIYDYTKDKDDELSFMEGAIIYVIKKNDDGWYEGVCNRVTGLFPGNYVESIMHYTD
UniProt O95782: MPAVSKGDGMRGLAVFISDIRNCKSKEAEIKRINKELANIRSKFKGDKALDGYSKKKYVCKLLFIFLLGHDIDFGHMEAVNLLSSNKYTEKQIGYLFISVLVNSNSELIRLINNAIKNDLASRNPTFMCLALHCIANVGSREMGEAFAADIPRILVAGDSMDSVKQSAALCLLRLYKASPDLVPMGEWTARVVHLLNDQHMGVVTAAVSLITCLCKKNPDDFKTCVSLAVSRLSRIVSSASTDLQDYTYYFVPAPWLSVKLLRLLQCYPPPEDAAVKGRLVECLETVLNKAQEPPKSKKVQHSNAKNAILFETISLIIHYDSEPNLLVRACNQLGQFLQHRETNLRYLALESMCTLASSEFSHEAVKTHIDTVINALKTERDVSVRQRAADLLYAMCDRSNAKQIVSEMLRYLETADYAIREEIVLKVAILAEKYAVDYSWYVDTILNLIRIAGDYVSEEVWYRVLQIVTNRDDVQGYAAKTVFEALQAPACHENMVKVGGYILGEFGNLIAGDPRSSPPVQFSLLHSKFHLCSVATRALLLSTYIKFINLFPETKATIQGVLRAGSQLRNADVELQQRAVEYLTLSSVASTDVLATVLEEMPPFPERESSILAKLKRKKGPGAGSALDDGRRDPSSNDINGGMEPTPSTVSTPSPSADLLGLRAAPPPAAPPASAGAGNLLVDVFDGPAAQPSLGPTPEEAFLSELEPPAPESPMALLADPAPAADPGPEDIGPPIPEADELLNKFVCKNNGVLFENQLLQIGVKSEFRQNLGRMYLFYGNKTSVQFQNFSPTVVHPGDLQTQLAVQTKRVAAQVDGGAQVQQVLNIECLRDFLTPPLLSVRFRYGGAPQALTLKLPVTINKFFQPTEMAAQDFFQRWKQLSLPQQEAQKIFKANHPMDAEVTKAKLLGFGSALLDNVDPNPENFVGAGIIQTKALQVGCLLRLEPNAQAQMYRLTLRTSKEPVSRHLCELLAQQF
UniProt P35611: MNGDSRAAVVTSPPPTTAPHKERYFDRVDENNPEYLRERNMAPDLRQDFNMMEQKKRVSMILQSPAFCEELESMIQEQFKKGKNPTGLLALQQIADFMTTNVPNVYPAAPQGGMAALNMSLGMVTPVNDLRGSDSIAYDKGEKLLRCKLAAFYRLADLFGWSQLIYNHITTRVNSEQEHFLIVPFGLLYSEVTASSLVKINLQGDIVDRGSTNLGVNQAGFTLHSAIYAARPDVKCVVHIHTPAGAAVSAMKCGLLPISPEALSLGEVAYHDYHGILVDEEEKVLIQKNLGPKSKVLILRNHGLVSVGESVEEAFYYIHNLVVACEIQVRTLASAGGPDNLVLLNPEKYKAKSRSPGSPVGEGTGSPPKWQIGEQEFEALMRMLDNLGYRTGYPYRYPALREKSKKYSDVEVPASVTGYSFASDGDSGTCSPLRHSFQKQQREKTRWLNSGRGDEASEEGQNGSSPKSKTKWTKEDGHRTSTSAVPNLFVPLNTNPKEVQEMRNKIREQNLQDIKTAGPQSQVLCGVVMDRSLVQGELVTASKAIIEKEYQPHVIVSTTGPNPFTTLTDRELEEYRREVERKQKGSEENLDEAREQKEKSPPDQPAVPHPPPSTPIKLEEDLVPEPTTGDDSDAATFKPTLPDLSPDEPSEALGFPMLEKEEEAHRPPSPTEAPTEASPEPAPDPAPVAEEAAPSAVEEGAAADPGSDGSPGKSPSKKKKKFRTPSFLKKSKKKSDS
UniProt Q7Z6V5: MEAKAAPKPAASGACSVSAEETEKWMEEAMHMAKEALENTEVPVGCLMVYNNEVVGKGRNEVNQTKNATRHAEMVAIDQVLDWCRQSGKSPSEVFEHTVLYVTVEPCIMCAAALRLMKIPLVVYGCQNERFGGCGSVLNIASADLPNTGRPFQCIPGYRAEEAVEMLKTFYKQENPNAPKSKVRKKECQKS
UniProt Q10567: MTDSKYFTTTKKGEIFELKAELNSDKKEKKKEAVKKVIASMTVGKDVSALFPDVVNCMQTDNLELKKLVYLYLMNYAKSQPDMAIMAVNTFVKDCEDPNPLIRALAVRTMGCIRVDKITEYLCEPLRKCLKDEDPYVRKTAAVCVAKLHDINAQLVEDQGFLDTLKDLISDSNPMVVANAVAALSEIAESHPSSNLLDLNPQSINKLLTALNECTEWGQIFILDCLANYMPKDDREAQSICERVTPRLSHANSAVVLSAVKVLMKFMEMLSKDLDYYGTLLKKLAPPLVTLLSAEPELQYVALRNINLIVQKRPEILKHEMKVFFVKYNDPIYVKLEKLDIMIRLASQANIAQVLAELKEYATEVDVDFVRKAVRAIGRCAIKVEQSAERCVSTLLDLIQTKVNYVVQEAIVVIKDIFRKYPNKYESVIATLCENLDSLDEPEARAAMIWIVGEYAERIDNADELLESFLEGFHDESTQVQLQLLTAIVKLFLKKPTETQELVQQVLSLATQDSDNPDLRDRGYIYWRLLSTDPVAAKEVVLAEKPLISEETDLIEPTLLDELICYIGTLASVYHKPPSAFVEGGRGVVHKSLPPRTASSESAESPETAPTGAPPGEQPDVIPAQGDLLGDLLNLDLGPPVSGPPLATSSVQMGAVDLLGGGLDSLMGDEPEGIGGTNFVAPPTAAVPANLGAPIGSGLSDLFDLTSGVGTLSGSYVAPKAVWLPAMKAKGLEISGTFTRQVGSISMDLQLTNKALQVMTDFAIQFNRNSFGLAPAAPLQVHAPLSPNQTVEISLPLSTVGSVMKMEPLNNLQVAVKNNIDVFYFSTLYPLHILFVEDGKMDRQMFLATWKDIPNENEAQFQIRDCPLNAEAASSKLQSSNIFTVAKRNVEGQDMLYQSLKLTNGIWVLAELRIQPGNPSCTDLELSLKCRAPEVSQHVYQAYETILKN
UniProt Q9NRN7: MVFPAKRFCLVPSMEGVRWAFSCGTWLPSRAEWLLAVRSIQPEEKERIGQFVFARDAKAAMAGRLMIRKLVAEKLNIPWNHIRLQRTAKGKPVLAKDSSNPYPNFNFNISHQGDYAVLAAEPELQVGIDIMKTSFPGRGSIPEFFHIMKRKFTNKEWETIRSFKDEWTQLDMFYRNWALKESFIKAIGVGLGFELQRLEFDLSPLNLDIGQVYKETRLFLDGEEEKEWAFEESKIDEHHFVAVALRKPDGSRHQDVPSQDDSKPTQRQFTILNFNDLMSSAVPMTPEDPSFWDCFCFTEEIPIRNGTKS

Here are results for 36 targets from the supplement of paper PMC7666118.

Compound in the assay: Nc1nc2c(ncn2[C@@H]2O[C@H](COP(=O)(O)OP(=O)(O)OP(=O)(O)O)[C@@H](O)[C@H]2O)c(=O)[nH]1
Nature of the assay: dose-dependent thermal stabilisation call (2D-TPP, DLPTP, 10% FDR) (binary (1 = stabilised)); higher = stabilised by the compound. The conditions noted are these: system: Jurkat gel-filtered lysate; concentration range 1-500 µM.
With APIP (UniProt Q96GX9), the “dose-dependent thermal stabilisation call” value is inactive: 0.

AGFG1 (UniProt P52594): the “dose-dependent thermal stabilisation call” value was inactive: 0.

For the target ARFGAP1 (UniProt Q8N6T3), the “dose-dependent thermal stabilisation call” value was inactive: 0.

Turning to ARHGAP10 (UniProt A1A4S6), the “dose-dependent thermal stabilisation call” value is inactive: 0.

Take AKT2 (UniProt P31751): the “dose-dependent thermal stabilisation call” value is inactive: 0.

As for ALKBH5 (UniProt Q6P6C2), the “dose-dependent thermal stabilisation call” value is inactive: 0.

As to ABAT (UniProt P80404), the “dose-dependent thermal stabilisation call” value was inactive: 0.

On to ACSS1 (UniProt Q9NUB1), for which the “dose-dependent thermal stabilisation call” value is active: 1.

For ARHGAP25 (UniProt P42331), the “dose-dependent thermal stabilisation call” value was inactive: 0.

Turning to AKAP1 (UniProt Q92667), the “dose-dependent thermal stabilisation call” value is inactive: 0.

AP1G1 (UniProt O43747): the “dose-dependent thermal stabilisation call” value is inactive: 0.

As to ARFGAP3 (UniProt Q9NP61), the “dose-dependent thermal stabilisation call” value was inactive: 0.

As to AIP (UniProt O00170), the “dose-dependent thermal stabilisation call” value was inactive: 0.

On to ACSF3 (UniProt Q4G176), for which the “dose-dependent thermal stabilisation call” value is active: 1.

Turning to AGGF1 (UniProt Q8N302), the “dose-dependent thermal stabilisation call” value is inactive: 0.

With ANKRD40 (UniProt Q6AI12), the “dose-dependent thermal stabilisation call” value is inactive: 0.

AHSA1 (UniProt O95433): the “dose-dependent thermal stabilisation call” value is inactive: 0.

As to AAMDC (UniProt Q9H7C9), the “dose-dependent thermal stabilisation call” value was inactive: 0.

As for AMDHD2 (UniProt Q9Y303), the “dose-dependent thermal stabilisation call” value is inactive: 0.

Consider ANP32E (UniProt Q9BTT0), for which the “dose-dependent thermal stabilisation call” value is inactive: 0.

Regarding AAGAB (UniProt Q6PD74), the “dose-dependent thermal stabilisation call” value is inactive: 0.

On to ANAPC16 (UniProt Q96DE5), for which the “dose-dependent thermal stabilisation call” value was inactive: 0.

ACAT1 (UniProt P24752): the “dose-dependent thermal stabilisation call” value is inactive: 0.

For AHCYL1 (UniProt O43865), the “dose-dependent thermal stabilisation call” value is inactive: 0.

Turning to ABI1 (UniProt Q8IZP0), the “dose-dependent thermal stabilisation call” value is inactive: 0.

In the case of ACOX1 (UniProt Q15067), the “dose-dependent thermal stabilisation call” value was inactive: 0.

Take ACOT7 (UniProt O00154): the “dose-dependent thermal stabilisation call” value is inactive: 0.

AP2A1 (UniProt O95782): the “dose-dependent thermal stabilisation call” value is active: 1.

On to ADD1 (UniProt P35611), for which the “dose-dependent thermal stabilisation call” value was inactive: 0.

As for ADI1 (UniProt Q9BV57), the “dose-dependent thermal stabilisation call” value was inactive: 0.

ACADM (UniProt P11310): the “dose-dependent thermal stabilisation call” value is active: 1.

In the case of ADAT2 (UniProt Q7Z6V5), the “dose-dependent thermal stabilisation call” value is inactive: 0.

For ANKRA2 (UniProt Q9H9E1), the “dose-dependent thermal stabilisation call” value was inactive: 0.

For the target AP1B1 (UniProt Q10567), the “dose-dependent thermal stabilisation call” value is inactive: 0.

In the case of AP3S2 (UniProt P59780), the “dose-dependent thermal stabilisation call” value was active: 1.

As to AASDHPPT (UniProt Q9NRN7), the “dose-dependent thermal stabilisation call” value is inactive: 0.
